In the experiment the test system is N. gonorrhoeae strain H041. As to the kind of experiment: In vivo efficacy in the gonorrhea mouse model. To be noted: individual mice, 2.00E+01 = no CFU/mL recovered, limit of detection.

Where “and” joins values, the source holds several entries; their conditions need not be identical. Equal entries are not always repeated. The source gives many values for each of these; only a part stands here.

For the molecule `O=C(Nc1nnc(-c2ccc(F)cc2)o1)N1CCc2ccccc2C1` [MBX-4132], the mouse cfu was 2.36E+05 CFU/mL and 2.68E+05 CFU/mL and 6.58E+03 CFU/mL and 2.29E+06 CFU/mL and 9.52E+05 CFU/mL and 5.22E+05 CFU/mL and 1.80E+03 CFU/mL and 2.60E+05 CFU/mL and 3.74E+05 CFU/mL and 1.34E+05 CFU/mL and 1.08E+05 CFU/mL and 6.96E+04 CFU/mL and 7.50E+05 CFU/mL and 7.40E+03 CFU/mL and 3.14E+05 CFU/mL and 1.08E+03 CFU/mL and 8.26E+04 CFU/mL and 3.62E+04 CFU/mL and 9.65E+05 CFU/mL and 3.10E+05 CFU/mL (Day 0, MBX-4132 10 MPK, 10 mg/kg); 6.56E+05 CFU/mL and 1.52E+05 CFU/mL and 2.00E+01 CFU/mL (4×) and 3.24E+05 CFU/mL and 5.22E+05 CFU/mL and 6.00E+01 CFU/mL and 8.28E+05 CFU/mL and 2.79E+04 CFU/mL and 3.46E+05 CFU/mL and 3.18E+05 CFU/mL and 1.63E+05 CFU/mL and 9.36E+05 CFU/mL and 5.70E+02 CFU/mL and 7.53E+05 CFU/mL and 3.36E+05 CFU/mL and 3.66E+05 CFU/mL and 4.80E+06 CFU/mL (Day 1, MBX-4132 10 MPK, 10 mg/kg); 1.70E+05 CFU/mL and 1.10E+04 CFU/mL and 2.00E+01 CFU/mL (6×) and 1.39E+04 CFU/mL and 6.24E+04 CFU/mL and 4.00E+01 CFU/mL and 1.14E+05 CFU/mL and 1.73E+05 CFU/mL and 4.14E+05 CFU/mL and 5.64E+03 CFU/mL and 2.82E+05 CFU/mL and 4.55E+05 CFU/mL and 1.56E+04 CFU/mL and 8.87E+05 CFU/mL and 3.12E+04 CFU/mL (Day 2, MBX-4132 10 MPK, 10 mg/kg); 2.00E+01 CFU/mL (11×) and 1.79E+03 CFU/mL and 8.00E+01 CFU/mL and 9.99E+01 CFU/mL and 4.87E+04 CFU/mL and 3.36E+03 CFU/mL and 1.68E+05 CFU/mL and 4.84E+05 CFU/mL and 5.00E+05 CFU/mL and 9.85E+03 CFU/mL (Day 3, MBX-4132 10 MPK, 10 mg/kg); 2.00E+01 CFU/mL (14×) and 1.26E+03 CFU/mL and 3.80E+02 CFU/mL and 6.64E+04 CFU/mL and 9.69E+05 CFU/mL and 2.13E+06 CFU/mL and 1.04E+03 CFU/mL (Day 4, MBX-4132 10 MPK, 10 mg/kg).

With `CNC(C)C1CCC(N)C(OC2C(N)CC(N)C(OC3OCC(C)(O)C(NC)C3O)C2O)O1` (stereo not shown) [gentamicin, reference compound], the mouse cfu reads like this: (Day 0, GEN, listed as GEN) 2.90E+05 CFU/mL and 8.00E+01 CFU/mL and 1.70E+05 CFU/mL and 1.52E+06 CFU/mL and 2.61E+06 CFU/mL and 5.20E+05 CFU/mL and 2.35E+05 CFU/mL and 2.84E+05 CFU/mL and 1.92E+05 CFU/mL and 6.13E+05 CFU/mL and 3.40E+03 CFU/mL and 3.46E+06 CFU/mL and 3.47E+05 CFU/mL and 2.12E+05 CFU/mL and 2.90E+04 CFU/mL and 5.48E+04 CFU/mL and 1.04E+05 CFU/mL and 3.68E+06 CFU/mL and 4.51E+05 CFU/mL and 5.55E+05 CFU/mL; (Day 1, GEN, listed as GEN) 2.00E+01 CFU/mL (8×) and 5.57E+05 CFU/mL and 9.90E+05 CFU/mL and 2.60E+05 CFU/mL and 2.36E+05 CFU/mL and 1.94E+05 CFU/mL and 4.00E+01 CFU/mL and 4.59E+03 CFU/mL and 4.25E+05 CFU/mL and 8.95E+03 CFU/mL and 1.25E+04 CFU/mL and 8.24E+04 CFU/mL and 1.58E+05 CFU/mL; (Day 2, GEN, listed as GEN) 2.00E+01 CFU/mL (9×) and 1.32E+05 CFU/mL and 1.77E+03 CFU/mL and 1.88E+03 CFU/mL and 3.00E+02 CFU/mL and 3.35E+03 CFU/mL and 4.00E+01 CFU/mL and 1.05E+04 CFU/mL and 2.50E+03 CFU/mL and 1.06E+03 CFU/mL and 4.49E+05 CFU/mL and 6.60E+02 CFU/mL; (Day 3, GEN, listed as GEN) 2.00E+01 CFU/mL (15×) and 1.60E+02 CFU/mL and 2.89E+03 CFU/mL and 3.00E+02 CFU/mL and 4.00E+01 CFU/mL and 2.61E+04 CFU/mL; (Day 4, GEN, listed as GEN) 2.00E+01 CFU/mL (16×) and 3.03E+04 CFU/mL and 2.40E+02 CFU/mL and 8.90E+03 CFU/mL and 4.22E+05 CFU/mL.

The record behind these values is PMC7979765, “trans-Translation inhibitors bind to a novel site on the ribosome and clear Neisseria gonorrhoeae in vivo” (Nature Communications, 2021).
